# Out of some 390,000 compounds screened, about 760 (0.19%) were called active. The inconclusive results got no clear call from the source; some entries with a clear call stand among them for comparison. Calls come from the whole dose curve; as a rule, active = well fitted inhibition curve with a large enough effect; inconclusive = small, poorly fitted or top-dose-only effect; inactive = flat fitted curve, though single readings scatter. Potencies of inconclusive entries are doubtful fits and often do not repeat.
# Experiment: qHTS for Inhibitors of Vif-A3F Interactions: qHTS; note: nearly all actives have a fitted effect of over 65% in size
# Settings: HeLa A3F-eYFP + Vif (tagged APOBEC3F with the HIV-1 protein that degrades it), YFP fluorescence increase; series mostly up to 46.1 µM
# In short: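 Fluorescence increase (Ex 488/Em 500-530) after overnight compound treatment at 37 deg C flags inhibition of Vif-driven A3F-eYFP loss in stable HeLa A3F-eYFP/Vif cells seeded overnight beforehand.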
# Potency is the fitted concentration of half-maximal effect.
row,SMILES,Potency
1,Cc1ccc(C)c(NC(=O)CSc2cccc3cccnc23)c1,"inconclusive: 35.5 µM [inhibitor, single point]"
2,Cc1cc(=O)oc2cc(OCC(=O)Nc3nnc(C(C)C)s3)ccc12,inactive
3,COc1cc2cc(C(=O)N/N=C/c3ccc(F)cc3)[nH]c2cc1OC,inactive
4,O=c1c2ccccc2c(/C=N/NS(=O)(=O)c2ccccc2)c(O)n1-c1ccccn1,"inconclusive: 35.5 µM [inhibitor, partial curve, poor fit]"
5,Nc1c(C(=O)NCc2ccccc2)nnn1Cc1cccc(Br)c1,"inconclusive: 22.4 µM [inhibitor, single point]"
6,CCN(CC)c1ccc(/C=N/NC(=O)c2ccco2)c(O)c1,"inconclusive: 11.2 µM [inhibitor, partial curve, poor fit]"
7,CCN(Cc1nc(-c2ccccc2)no1)C(=O)c1ccco1,"inconclusive: 35.5 µM [inhibitor, single point]"
8,O=C(Nc1ccc(N2CCN(C(=O)c3ccccc3)CC2)c(Cl)c1)c1ccco1,inactive
9,O=C1C2C(c3ccccc3)CC=CC2[C@H](c2ccc(C(F)(F)F)cc2)N1Cc1ccccc1 (some centres not stated),"inconclusive: 35.5 µM [inhibitor, single point]"
10,CC1=CC2=NC(=O)/C(=C/c3cccn3Cc3ccccc3)C(=N)N2O1,inactive
11,O=C(Cn1ncc2c3ccccc3n(Cc3ccccc3F)c2c1=O)N1CCCCC1,inactive
12,CC(C)c1ccc(C=NNc2ccc([N+](=O)[O-])cn2)cc1,"inconclusive: 15.8 µM [inhibitor, partial curve, poor fit]"
13,CCCC(O)(CCN1CCCCC1)c1ccc(OCC)cc1 (configuration not stated),inactive
14,CCOC(=O)C1=C(C)N=C2c3ccccc3C(=O)C2C1c1ccc(Cl)cc1 (configuration not stated),inactive
15,Cc1nn(-c2ccc(N3CCCC3)nn2)c(C)c1CCC(=O)NCc1ccc(OC(C)C)cc1,inactive
16,C[C@@H]1CN([C@H](C)CO)S(=O)(=O)c2ccc(Br)cc2O[C@@H]1CN(C)Cc1ccc(-c2ccccc2)cc1,"inconclusive: 15.8 µM [inhibitor, single point]"
17,O=S(=O)(O)c1cc(O)c2ccc(Nc3ccccc3)cc2c1,inactive
18,O=C(NCC1CCCN1S(=O)(=O)c1cccs1)c1c(F)cccc1F (configuration not stated),"inconclusive: 1.12 µM [inhibitor, full curve, poor fit]"
19,COc1ccccc1NC(=O)C(C/C=C(/C)Cl)C(C)=O (configuration not stated),inactive
20,Nc1nc(NC(=O)/C=C\C(=O)O)nn1-c1ccccc1,"inconclusive: 22.4 µM [inhibitor, partial curve, poor fit]"
21,Cc1ccc(Cn2c(CCCNC(=O)C3CCCCC3)nc3ccccc32)cc1,inactive
22,CCS(=O)(=O)NCCNc1ccc([N+](=O)[O-])cc1,"inconclusive: 6.31 µM [inhibitor, single point]"
23,CC(NC(=S)NC1CCCCC1)c1ccccc1 (configuration not stated),inactive

# Sorted by number of heavy atoms (rising): three of the compounds above.
row,SMILES,Potency
23,CC(NC(=S)NC1CCCCC1)c1ccccc1 (configuration not stated),inactive
11,O=C(Cn1ncc2c3ccccc3n(Cc3ccccc3F)c2c1=O)N1CCCCC1,inactive
16,C[C@@H]1CN([C@H](C)CO)S(=O)(=O)c2ccc(Br)cc2O[C@@H]1CN(C)Cc1ccc(-c2ccccc2)cc1,"inconclusive: 15.8 µM [inhibitor, single point]"

# Continued.

row,SMILES,Potency
1,O=C(NCC1CCCO1)c1nn2c(C(F)(F)F)cc(-c3cccs3)nc2c1Cl (configuration not stated),"inconclusive: 2.82 µM [inhibitor, partial curve, poor fit]"
2,N#Cc1cccc(C(=O)Nc2cc(S(=O)(=O)N3CCOCC3)ccc2N2CCCC2)c1,"inconclusive: 35.5 µM [inhibitor, single point]"
3,COCCOC(=O)c1cc(C(=O)c2cc(Cl)ccc2O)coc1=N,"inconclusive: 15.8 µM [inhibitor, single point]"
4,Cc1ccccc1N1C(S)=C(C#N)C(=O)NC12CCCCC2,"inconclusive: 35.5 µM [inhibitor, single point]"
5,C/C(=N\NC(=O)c1ccc2c(c1)OCCO2)c1ccccc1,"inconclusive: 6.31 µM [inhibitor, single point]"
6,O=S(=O)(NCCCCCNS(=O)(=O)c1c(F)cccc1F)c1ccc2c(c1)OCCO2,inactive
7,COc1ccc(OC)c(S(=O)(=O)N2CC=C(c3c(C)n(CC(=O)N4CCCC4)c4ccccc34)CC2)c1,inactive
8,COc1ccccc1OCCn1nnc2ccccc21,"inconclusive: 3.55 µM [inhibitor, single point]"
9,Nc1nccnc1C(=O)OCC(=O)NCCc1ccc(S(N)(=O)=O)cc1,"inconclusive: 12.6 µM [inhibitor, partial curve, poor fit]"
10,COc1ccccc1-c1sc2ccccc2c1C#CC1(O)CCCCC1,"inconclusive: 35.5 µM [inhibitor, single point]"
11,Cc1ccccc1NC(=S)N/N=C1\CC(C)(C)Oc2ccc(O)cc21,"inconclusive: 3.55 µM [inhibitor, single point]"
12,CN(C)C(=S)N=Nc1[nH]c2ccccc2c1O,"inconclusive: 35.5 µM [inhibitor, single point]"
13,COc1cc(N2CCCC2)c(OC)cc1/C=C(/C#N)c1cccc(F)c1,"inconclusive: 7.08 µM [inhibitor, partial curve, poor fit]"
14,CCOC(=O)c1ccc(NC(=S)NC(=O)C2CCCC2)cc1,"inconclusive: 12.6 µM [inhibitor, partial curve]"
15,O=C(OCC(=O)N1N=C(c2ccc(Cl)cc2)CC1c1ccco1)c1cccnc1 (configuration not stated),"inconclusive: 12.6 µM [inhibitor, single point]"
16,CCOc1cccc2cc(-c3nc4sc(C(=O)Nc5ccc(C)cc5)c(C)c4c(=O)[nH]3)c(=O)oc12,"inconclusive: 3.98 µM [inhibitor, partial curve, poor fit]"
17,CCn1c(C)cc(/C=C2\NC(=O)N(CC(=O)Nc3ccc(F)cc3)C2=O)c1C,inactive
18,CC1=CC(=C(C#N)c2nc3ccccc3s2)C=C(C)N1Cc1ccco1,"inconclusive: 17.8 µM [inhibitor, partial curve, poor fit]"
19,Oc1ccc(-c2nnc(Nc3ccccc3)c3ccccc23)cc1,"inconclusive: 3.16 µM [inhibitor, single point]"
20,O=C(C[C@H]1C/C=C\C[C@H](NC(=O)OCC2c3ccccc3-c3ccccc32)C(=O)OC[C@H](Cc2ccccc2)NC1=O)N[C@H](CO)Cc1ccccc1,"inconclusive: 7.08 µM [inhibitor, full curve]"
21,CN(C1CCCCC1)S(=O)(=O)c1ccc(C(=O)Nc2sc3c(c2C(N)=O)CC(C)(C)NC3(C)C)cc1,inactive
22,COc1ccc(/C=C2/CCCC(CN(C)C)C2=O)cc1 (configuration not stated),"inconclusive: 5.01 µM [inhibitor, single point]"
23,COc1ccc(C(=O)CSc2nn3c(=O)c(C(C)(C)C)nnc3s2)cc1,"inconclusive: 22.4 µM [inhibitor, partial curve, poor fit]"

row,SMILES,Potency
1,CCOn1c(=O)c(C)[n+]([O-])c2ccccc21,"inconclusive: 35.5 µM [inhibitor, single point]"
2,CCN(CC)c1ccc2c(C)c(Cl)c(=O)oc2c1,inactive
3,COc1ccc(NC(=O)C(CC(C)C)NC(=O)C2CCCCC2)c(OC)c1 (configuration not stated),"inconclusive: 3.16 µM [inhibitor, single point]"
4,COc1ccc2nc(C)cc(NCc3ccc(F)cc3)c2c1,"inconclusive: 15.8 µM [inhibitor, partial curve, poor fit]"
5,O=[N+]([O-])c1cc([N+](=O)[O-])c2oc(-c3ccccc3)c(Br)c2c1O,inactive
6,CCCCCCc1cc2cc(/C(N)=N/NC(=O)c3ccncc3)c(=O)oc2cc1O,"inconclusive: 3.98 µM [inhibitor, single point]"
7,CCOC(=O)c1c(C)[nH]c(C(=O)OC(C)C(=O)Nc2ccccc2OC)c1C (configuration not stated),"inconclusive: 35.5 µM [inhibitor, single point]"
8,O=C(C1CCN(Cc2ccc(Cl)cc2)CC1)N1CCN(C(c2ccccc2)c2ccccc2)CC1,"inconclusive: 31.6 µM [inhibitor, partial curve, poor fit]"
9,CCOc1nnc(C)c2c(C)n(-c3cccc(Cl)c3)nc12,"inconclusive: 35.5 µM [inhibitor, single point]"
10,CC1=CC(=C(C#N)c2nc3ccccc3s2)C=C(C)N1CC1CCCO1 (configuration not stated),"inconclusive: 35.5 µM [inhibitor, single point]"
11,COc1cc(NC(=S)NC(=O)c2cccs2)ccc1NC(=O)C(C)C,"inconclusive: 35.5 µM [inhibitor, single point]"
12,C/C(=N\NC(=S)NCCc1ccccc1)c1ccc(Cl)cc1Cl,"inconclusive: 3.16 µM [inhibitor, single point]"
13,C/C(CC(=O)NC(C)(C)C)=N\NC(N)=S,"inconclusive: 35.5 µM [inhibitor, partial curve, poor fit]"
14,CC(Nc1cc(N2CCN(S(=O)(=O)N(C)C)CC2)ccc1[N+](=O)[O-])c1ccccc1 (configuration not stated),"inconclusive: 7.08 µM [inhibitor, full curve, poor fit]"
15,CCOC(=O)c1cc2c(=O)n3cccc(C)c3nc2n(Cc2ccco2)c1=NC(=O)c1ccccc1,inactive
16,N#CCSc1ccccc1NC(=O)COC(=O)CCNC(=O)c1ccc([N+](=O)[O-])cc1,active: 22.4 µM
17,O=C(NC(=S)N1CCOCC1)C12CC3CCC(CC(C3)C1)C2,inactive
18,CC1CCCCN1CCNC(=O)C1CCCN(c2ncnc3c2nc2n3CCCCC2)C1 (configuration not stated),"inconclusive: 35.5 µM [inhibitor, single point]"
19,O=[N+]([O-])c1ccccc1/C=C/C=N/n1c(-c2ccccc2F)n[nH]c1=S,inactive
20,Cc1ccc(C)c(NC(=S)Nc2ncccc2C)c1,"inconclusive: 35.5 µM [inhibitor, single point]"
21,O=C(NCCc1ccccn1)c1cccc(S(=O)(=O)N2CCCCCC2)c1,"inconclusive: 11.2 µM [inhibitor, partial curve, poor fit]"

# From PubChem BioAssay AID602313 (National Center for Advancing Translational Sciences (NCATS), 2012)
